Measurements as given in paper doi:10.1101/2023.03.09.531980.

Amino acid sequences for entries named in this document (tags omitted). A change or cut given only in a name is not applied to a line headed by its entry.
UniProt Q9BVK8: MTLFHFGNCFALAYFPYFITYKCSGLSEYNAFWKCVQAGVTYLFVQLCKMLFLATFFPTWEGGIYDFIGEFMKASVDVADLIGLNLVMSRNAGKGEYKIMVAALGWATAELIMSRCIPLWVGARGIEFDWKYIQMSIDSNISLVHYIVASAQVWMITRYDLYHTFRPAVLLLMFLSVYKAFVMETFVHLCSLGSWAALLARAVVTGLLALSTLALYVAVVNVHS
UniProt Q15155: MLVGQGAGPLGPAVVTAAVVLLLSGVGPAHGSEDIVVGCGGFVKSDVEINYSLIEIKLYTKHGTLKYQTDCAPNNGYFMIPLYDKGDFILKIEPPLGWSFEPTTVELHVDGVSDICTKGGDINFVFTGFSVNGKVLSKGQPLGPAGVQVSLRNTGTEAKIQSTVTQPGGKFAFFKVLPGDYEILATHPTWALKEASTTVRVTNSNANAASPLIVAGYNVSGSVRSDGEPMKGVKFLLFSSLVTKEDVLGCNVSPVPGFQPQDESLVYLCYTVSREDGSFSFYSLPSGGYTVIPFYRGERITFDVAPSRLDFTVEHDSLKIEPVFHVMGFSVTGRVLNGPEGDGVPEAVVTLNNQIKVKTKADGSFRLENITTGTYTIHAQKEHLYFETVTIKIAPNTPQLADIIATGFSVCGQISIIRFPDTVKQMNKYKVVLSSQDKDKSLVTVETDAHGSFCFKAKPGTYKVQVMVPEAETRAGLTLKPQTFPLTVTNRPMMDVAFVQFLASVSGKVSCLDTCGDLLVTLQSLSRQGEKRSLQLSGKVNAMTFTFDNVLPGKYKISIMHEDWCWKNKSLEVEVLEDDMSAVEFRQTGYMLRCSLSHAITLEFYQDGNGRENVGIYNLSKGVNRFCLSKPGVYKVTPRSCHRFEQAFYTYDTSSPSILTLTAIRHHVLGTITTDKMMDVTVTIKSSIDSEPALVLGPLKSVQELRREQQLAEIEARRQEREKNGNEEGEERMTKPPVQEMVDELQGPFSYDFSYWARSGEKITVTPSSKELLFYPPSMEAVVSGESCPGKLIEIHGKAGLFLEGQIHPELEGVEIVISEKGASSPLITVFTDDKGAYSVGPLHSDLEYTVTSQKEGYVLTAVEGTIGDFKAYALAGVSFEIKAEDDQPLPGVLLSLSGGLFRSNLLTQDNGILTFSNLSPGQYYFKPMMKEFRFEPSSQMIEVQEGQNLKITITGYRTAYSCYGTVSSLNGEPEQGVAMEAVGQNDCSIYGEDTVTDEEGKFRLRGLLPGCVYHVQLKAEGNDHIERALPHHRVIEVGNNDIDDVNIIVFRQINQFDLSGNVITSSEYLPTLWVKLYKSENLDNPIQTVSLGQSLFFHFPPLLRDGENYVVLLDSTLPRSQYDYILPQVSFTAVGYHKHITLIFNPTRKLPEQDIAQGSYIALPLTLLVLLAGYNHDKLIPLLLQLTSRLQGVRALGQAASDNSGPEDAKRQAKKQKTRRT

Target: TMEM147-GFP (human) (UniProt Q9BVK8)
Assay: co-IP + SEC

- binding: binds
Substance: NOMO (from UniProt Q15155)

These are yes or no findings as the source states them, for the method shown. In cells and extracts the contact can be indirect. Binding calls can cover weak binding; strength is not graded here.
